# Results are given in words; binding and its absence hold for the method and conditions named. In cells and extracts the contact can be indirect. Some binding calls cover weakened binding; strength is not graded here.
# Protein sequences, listed by entry. Tags and fused reporters are not part of them.
# UniProt P50096: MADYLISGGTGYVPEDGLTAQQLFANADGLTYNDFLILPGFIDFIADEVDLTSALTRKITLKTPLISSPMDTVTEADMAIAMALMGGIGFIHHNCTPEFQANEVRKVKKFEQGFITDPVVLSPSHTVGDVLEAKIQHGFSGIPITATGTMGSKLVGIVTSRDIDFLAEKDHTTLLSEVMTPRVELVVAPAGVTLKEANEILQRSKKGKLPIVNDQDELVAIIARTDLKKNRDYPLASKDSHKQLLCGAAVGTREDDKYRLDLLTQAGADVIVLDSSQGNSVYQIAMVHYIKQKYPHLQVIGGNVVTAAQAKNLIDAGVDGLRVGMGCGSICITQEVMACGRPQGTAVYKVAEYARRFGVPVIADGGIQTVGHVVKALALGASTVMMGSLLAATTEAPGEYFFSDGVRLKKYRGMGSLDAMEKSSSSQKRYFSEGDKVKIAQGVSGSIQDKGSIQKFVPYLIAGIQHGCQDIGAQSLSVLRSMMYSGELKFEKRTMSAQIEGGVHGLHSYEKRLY
# UniProt Q8BRK8: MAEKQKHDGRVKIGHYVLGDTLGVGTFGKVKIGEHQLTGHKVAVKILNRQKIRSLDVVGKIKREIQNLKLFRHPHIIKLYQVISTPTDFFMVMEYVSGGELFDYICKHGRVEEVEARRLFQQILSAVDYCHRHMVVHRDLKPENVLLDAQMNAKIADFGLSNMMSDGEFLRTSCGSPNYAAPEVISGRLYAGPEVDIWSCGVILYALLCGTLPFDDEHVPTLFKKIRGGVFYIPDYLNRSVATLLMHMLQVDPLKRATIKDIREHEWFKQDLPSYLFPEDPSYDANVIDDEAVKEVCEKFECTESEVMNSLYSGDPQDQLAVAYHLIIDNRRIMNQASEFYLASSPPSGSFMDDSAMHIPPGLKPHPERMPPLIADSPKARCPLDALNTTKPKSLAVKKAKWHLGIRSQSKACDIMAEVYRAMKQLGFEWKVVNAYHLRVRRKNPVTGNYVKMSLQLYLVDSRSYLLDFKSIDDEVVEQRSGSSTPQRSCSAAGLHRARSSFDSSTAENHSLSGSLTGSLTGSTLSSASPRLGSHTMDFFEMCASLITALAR
# Target: inosine monophosphate dehydrogenase 1 (IMPDH1) (mouse (endogenous in retina)) (UniProt P50096)
# Assay: co-IP; Dynabeads coated with IMPDH1 antibody (10 ug) added to the lysate of 6 dark-adapted wild-type mouse retinas; eluate probed by Western blot for IMPDH1 and PRKAA2
substance,measurement,value
AMP-activated protein kinase catalytic subunit alpha-2 (PRKAA2) (from UniProt Q8BRK8 1-552) (enzyme),binding,binds
